Taken from: PubChem BioAssay AID743121 (NCATS, 2013)
This is an unselected part of about 26,000 reagents. 167 of all reagents (0.63%) count as active. 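Calls are per gene from RSA p-values that are not deposited; an individual active-marked siRNA can sensitise only weakly.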 A number with no mark means an inactive call. The numbers tell different reagents against one gene apart. Not all columns of the deposit are shown.

Aim: 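Genes whose silencing strengthens cell killing by camptothecin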 (primary screen)
Cells: MDA-MB-231 cells, a human breast cancer line
Knock-down reagent: single siRNA against human genes, 20 nM siRNA (0.8 pmol per well)
Timing: 120 h (drug added 48 h after transfection, read 72 h later)
Conditions: camptothecin 20 nM (about EC30) for 72 h; vehicle 0.1% DMSO in parallel plates
Measurement: 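Cell viability by ATP luminescence (CellTiter-Glo) as % of non-targeting siRNA wells, and the log2 ratio of viability without drug over viability with camptothecin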
Scale: log2 vehicle/camptothecin viability: higher = stronger sensitisation to camptothecin
Rule for the call: 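Active genes have an RSA gene-level p-value below 0.001, computed from the ratios of their separate siRNAs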

After knock-down of MRE11 (MRE11 double strand break repair nuclease) #1, the record shows log2 vehicle/camptothecin viability -0.232.
Against MRE11 (MRE11 double strand break repair nuclease) #2, the entry reads log2 vehicle/camptothecin viability 0.378.
After knock-down of MRE11 (MRE11 double strand break repair nuclease) #3 the results were log2 vehicle/camptothecin viability 0.433.
Silencing of MRE11 (MRE11 double strand break repair nuclease) #4 resulted in: log2 vehicle/camptothecin viability -0.195.
Knock-down of NAGLU (N-acetyl-alpha-glucosaminidase) #1 came out at: log2 vehicle/camptothecin viability -0.266.
NAGLU (N-acetyl-alpha-glucosaminidase) #2 scored log2 vehicle/camptothecin viability -0.792.
For NAGLU (N-acetyl-alpha-glucosaminidase) #3, the entry reads log2 vehicle/camptothecin viability -0.174.
Against NAGLU (N-acetyl-alpha-glucosaminidase) #4, the entry reads log2 vehicle/camptothecin viability -0.375.
Silencing of KIF22 (kinesin family member 22) #1 gave: log2 vehicle/camptothecin viability -0.403.
KIF22 (kinesin family member 22) #2 showed log2 vehicle/camptothecin viability -0.386.
Silencing of KIF22 (kinesin family member 22) #3 came out at: log2 vehicle/camptothecin viability -0.0602.
With knock-down of KIF22 (kinesin family member 22) #4 the results were log2 vehicle/camptothecin viability -0.36.
NEDD4L (NEDD4 like E3 ubiquitin protein ligase) #1 gave log2 vehicle/camptothecin viability -0.575.
For NEDD4L (NEDD4 like E3 ubiquitin protein ligase) #2, the entry reads log2 vehicle/camptothecin viability 0.243.
Silencing of NEDD4L (NEDD4 like E3 ubiquitin protein ligase) #3 gave: log2 vehicle/camptothecin viability 0.361.
After knock-down of TUBB3 (tubulin beta 3 class III) #1, the record shows log2 vehicle/camptothecin viability 0.0681.
For TUBB3 (tubulin beta 3 class III) #2, the entry reads log2 vehicle/camptothecin viability -0.443.
TUBB3 (tubulin beta 3 class III) #3 scored log2 vehicle/camptothecin viability 0.0944.
After knock-down of TRIP11 (thyroid hormone receptor interactor 11) #1, the screen gave log2 vehicle/camptothecin viability 0.269.
After knock-down of TRIP11 (thyroid hormone receptor interactor 11) #2 the results were log2 vehicle/camptothecin viability 0.149.
Knock-down of TRIP11 (thyroid hormone receptor interactor 11) #3 came out at: log2 vehicle/camptothecin viability -0.0486.

2 neighbouring entries from above, for reference:
MRE11 (MRE11 double strand break repair nuclease) #4 | log2 vehicle/camptothecin viability = -0.195
NAGLU (N-acetyl-alpha-glucosaminidase) #1 | log2 vehicle/camptothecin viability = -0.266

The listing continues.
For EDN1 (endothelin 1) #1, the values are log2 vehicle/camptothecin viability 0.587.
EDN1 (endothelin 1) #2 showed log2 vehicle/camptothecin viability -0.368.
Depletion of EDN1 (endothelin 1) #3 came out at: log2 vehicle/camptothecin viability -0.289.
EDN1 (endothelin 1) #4 gave log2 vehicle/camptothecin viability 0.272.
Silencing of POLE (DNA polymerase epsilon, catalytic subunit) #1 gave: log2 vehicle/camptothecin viability -0.675.
For POLE (DNA polymerase epsilon, catalytic subunit) #2 the deposit lists log2 vehicle/camptothecin viability -0.679.
POLE (DNA polymerase epsilon, catalytic subunit) #3 scored log2 vehicle/camptothecin viability -0.579.
POLE (DNA polymerase epsilon, catalytic subunit) #4 gave log2 vehicle/camptothecin viability -1.12.
After knock-down of PCMTD2 #1, the record shows log2 vehicle/camptothecin viability 0.238.
For PCMTD2 #2, the entry reads log2 vehicle/camptothecin viability -0.355.
Against PCMTD2 #3 the deposit lists log2 vehicle/camptothecin viability -0.401.
Against STAMBP (STAM binding protein) #1, the values are log2 vehicle/camptothecin viability -0.383.
With knock-down of STAMBP (STAM binding protein) #2, the screen gave log2 vehicle/camptothecin viability -0.105.
STAMBP (STAM binding protein) #3 gave log2 vehicle/camptothecin viability 0.205.
